Measured values: publication PMC7444085
No constants are given. Whether binding was seen depends on the method and setting. In cells and extracts the contact can be indirect. Some entries that bind do so weakly or less than the wild type.

Amino acid sequences for entries named in this document (tags omitted).
UniProt O15524: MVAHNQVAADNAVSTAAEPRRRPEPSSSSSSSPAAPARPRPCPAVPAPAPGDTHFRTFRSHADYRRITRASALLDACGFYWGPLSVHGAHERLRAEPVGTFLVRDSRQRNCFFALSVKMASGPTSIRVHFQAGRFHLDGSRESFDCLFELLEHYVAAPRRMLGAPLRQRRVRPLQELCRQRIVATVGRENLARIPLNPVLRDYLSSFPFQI
UniProt P42224: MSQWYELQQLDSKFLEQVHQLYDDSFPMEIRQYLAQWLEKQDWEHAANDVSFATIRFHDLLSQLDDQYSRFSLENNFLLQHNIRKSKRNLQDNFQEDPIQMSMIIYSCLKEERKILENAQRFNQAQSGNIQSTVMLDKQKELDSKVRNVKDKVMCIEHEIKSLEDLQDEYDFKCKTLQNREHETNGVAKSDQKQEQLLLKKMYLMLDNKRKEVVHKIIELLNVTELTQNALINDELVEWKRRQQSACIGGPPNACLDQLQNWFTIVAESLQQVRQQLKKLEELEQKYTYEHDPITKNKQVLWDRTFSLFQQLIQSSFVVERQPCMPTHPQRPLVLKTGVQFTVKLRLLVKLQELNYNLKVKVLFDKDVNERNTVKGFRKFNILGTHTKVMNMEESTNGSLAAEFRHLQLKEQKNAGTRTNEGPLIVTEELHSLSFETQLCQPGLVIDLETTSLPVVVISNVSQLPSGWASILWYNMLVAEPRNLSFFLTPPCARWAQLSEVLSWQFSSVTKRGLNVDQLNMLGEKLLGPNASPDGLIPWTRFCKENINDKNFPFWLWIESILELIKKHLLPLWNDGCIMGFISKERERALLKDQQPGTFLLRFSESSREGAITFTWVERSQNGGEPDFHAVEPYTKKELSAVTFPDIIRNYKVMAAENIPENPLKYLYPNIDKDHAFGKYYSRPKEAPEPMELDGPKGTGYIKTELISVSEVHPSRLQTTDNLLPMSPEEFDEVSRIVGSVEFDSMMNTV

Biological target: SOCS1 (human (endogenous in NPC cell lines)) (UniProt O15524)
Assay: co-IP; primary antibody against SOCS1 or STAT1 added to NPC cell lysate, overnight at 4 °C; protein A/G agarose beads 2 h at 4 °C; normal human IgG as negative control; washes with PBS and cell lysis buffer; western blot

- binding: binds
Substance: STAT1 (from UniProt P42224 1-750)
